Assay results reported in paper PMC12646323.

System: Mak16 (yeast His6-Mak16) + Rpf1-Δ58 del1-58
Assay: EMSA
Conditions: [4Fe-4S] cluster, defined complex upon stoichiometric mixing, 0.8 µg ES7; 0.8 µg ES7, 5% nondenaturing acrylamide gel, GelRed then Coomassie stain; recombinant protein; probe letters rebuilt from the primers and the genome; part of a longer molecule

“CAUUUGAUCAGACAUGGUGUUUUGUGCCCUCUGCUCCUUGUGGGUAGGGGAAUCUCGCAUUUCACUGGGCCAGCAUCAGUUUUGGUGGCAGGAUAAAUCCAUAGGAAUGUAGCUUGCCUCGGUAAGUAUUAUAGCCUGUGGGAAUACUGCCAGCUGGGACUGAGGACUGCGACGUAAGUCAAGGAUGCUGGCAUAAUGGUUAUAUGCC [ES7 RNA (25S rRNA expansion segment 7)]”: binds.

For at least one entry, the source does not settle the construct or the ends of the probe.
